Laboratory results: the supplement of paper PMC10849652
The list shows a part of the results.

The chains behind the UniProt entries cited, without tags or fusion partners. Where a name states a change or a piece, a line headed by the entry shows the natural chain unless it says otherwise.
UniProt Q8N5L8: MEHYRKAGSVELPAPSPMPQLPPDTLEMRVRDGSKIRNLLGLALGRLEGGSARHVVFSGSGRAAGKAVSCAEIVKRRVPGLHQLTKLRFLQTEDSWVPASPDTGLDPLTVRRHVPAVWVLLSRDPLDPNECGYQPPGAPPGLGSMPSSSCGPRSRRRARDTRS
UniProt P05386, whole entry, looked up: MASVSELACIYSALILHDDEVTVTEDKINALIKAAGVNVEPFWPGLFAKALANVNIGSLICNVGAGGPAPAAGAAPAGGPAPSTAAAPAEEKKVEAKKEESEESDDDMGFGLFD
UniProt Q9NQG5: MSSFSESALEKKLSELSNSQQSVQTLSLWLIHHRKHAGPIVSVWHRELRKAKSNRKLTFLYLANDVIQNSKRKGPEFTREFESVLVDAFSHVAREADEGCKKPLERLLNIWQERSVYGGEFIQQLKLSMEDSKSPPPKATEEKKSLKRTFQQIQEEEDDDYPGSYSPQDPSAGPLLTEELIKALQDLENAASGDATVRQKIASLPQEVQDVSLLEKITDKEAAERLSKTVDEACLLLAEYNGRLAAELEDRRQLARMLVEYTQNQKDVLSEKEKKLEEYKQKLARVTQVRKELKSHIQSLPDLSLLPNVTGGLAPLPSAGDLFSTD
UniProt Q7L523, whole entry, looked up: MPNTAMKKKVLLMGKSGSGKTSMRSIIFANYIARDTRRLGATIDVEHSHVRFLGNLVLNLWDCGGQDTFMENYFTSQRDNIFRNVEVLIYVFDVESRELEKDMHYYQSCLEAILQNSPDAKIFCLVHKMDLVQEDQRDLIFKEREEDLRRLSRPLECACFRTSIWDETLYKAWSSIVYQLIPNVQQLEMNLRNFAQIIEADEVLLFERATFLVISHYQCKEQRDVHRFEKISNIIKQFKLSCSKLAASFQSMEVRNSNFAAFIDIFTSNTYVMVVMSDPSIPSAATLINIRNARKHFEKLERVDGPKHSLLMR
UniProt Q96P16: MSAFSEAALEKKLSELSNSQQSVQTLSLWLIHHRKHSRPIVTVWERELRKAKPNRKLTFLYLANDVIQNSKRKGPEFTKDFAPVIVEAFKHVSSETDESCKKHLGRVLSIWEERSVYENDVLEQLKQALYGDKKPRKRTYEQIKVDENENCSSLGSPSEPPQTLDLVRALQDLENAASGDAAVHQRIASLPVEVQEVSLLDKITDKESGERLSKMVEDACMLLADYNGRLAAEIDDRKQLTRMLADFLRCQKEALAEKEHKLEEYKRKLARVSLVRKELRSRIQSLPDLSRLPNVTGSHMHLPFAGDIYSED
UniProt Q96IZ7: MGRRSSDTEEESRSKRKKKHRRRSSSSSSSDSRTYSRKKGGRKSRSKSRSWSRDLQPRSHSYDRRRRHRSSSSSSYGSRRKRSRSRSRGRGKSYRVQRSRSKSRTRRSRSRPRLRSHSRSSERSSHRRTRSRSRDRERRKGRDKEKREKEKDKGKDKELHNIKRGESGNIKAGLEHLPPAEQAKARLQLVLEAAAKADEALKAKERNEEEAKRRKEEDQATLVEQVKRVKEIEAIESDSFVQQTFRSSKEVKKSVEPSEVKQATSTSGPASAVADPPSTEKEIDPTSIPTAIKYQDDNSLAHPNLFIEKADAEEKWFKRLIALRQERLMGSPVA
UniProt Q96S38: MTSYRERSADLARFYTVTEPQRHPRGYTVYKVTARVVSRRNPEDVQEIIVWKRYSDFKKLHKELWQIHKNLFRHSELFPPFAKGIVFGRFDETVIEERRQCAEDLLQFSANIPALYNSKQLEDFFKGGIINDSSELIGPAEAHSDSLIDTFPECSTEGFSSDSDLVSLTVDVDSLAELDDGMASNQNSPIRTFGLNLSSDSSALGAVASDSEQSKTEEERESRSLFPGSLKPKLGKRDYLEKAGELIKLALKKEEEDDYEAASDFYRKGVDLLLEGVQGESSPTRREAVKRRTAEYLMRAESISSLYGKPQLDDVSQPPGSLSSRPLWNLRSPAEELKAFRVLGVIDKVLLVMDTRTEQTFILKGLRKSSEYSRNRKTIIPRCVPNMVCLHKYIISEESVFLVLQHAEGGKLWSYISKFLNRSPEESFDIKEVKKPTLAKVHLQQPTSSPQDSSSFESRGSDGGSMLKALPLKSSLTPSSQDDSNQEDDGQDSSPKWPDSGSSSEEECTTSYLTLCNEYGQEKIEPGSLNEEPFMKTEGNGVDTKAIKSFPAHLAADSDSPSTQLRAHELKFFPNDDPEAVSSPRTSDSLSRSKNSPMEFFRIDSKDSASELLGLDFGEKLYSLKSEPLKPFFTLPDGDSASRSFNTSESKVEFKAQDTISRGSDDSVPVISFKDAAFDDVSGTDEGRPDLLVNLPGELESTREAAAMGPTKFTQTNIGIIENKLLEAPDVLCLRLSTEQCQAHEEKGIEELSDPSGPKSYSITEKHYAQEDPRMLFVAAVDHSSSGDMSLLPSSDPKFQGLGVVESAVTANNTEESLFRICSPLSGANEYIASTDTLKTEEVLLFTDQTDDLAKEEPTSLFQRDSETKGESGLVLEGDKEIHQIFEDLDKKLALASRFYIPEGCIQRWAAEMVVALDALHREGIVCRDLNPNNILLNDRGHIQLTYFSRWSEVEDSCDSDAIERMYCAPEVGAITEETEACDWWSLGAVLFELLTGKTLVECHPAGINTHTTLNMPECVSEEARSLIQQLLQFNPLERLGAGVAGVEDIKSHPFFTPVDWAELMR

Experiments:
Assay in all cases: log2 fold change, soluble protein after heating vs DMSO (PISA); higher = thermal stabilisation; K562 lysate, 10 uM; active = over 0.2 and 3.5 SD of the protein, either way, in both replicates (recomputed)
[1] = compound: CN1CC[C@H](c2c(O)cc(O)c3c(=O)cc(-c4ccccc4Cl)oc23)[C@H](O)C1 [alvocidib]
Method in brief: (§1)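 Soluble protein was defined as the supernatant remaining after 21,000xg for 90 min, following pooling of heated aliquots and adjustment to 0.5% NP-40 at 4°C. Before that, crude K562 extract at 1 mg/mL protein in PBS pH 7.4 with 1 mM MgCl2 was treated with 10 μM compound for 30 min and heated for 3 min across 48°C-58°C. Quantification used TMTpro 16plex LC-MS/MS with channel sums equalised, and values are log-two fold changes in thermal stability relative to solvent controls from duplicates.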

[2] = compound: CN1CCc2c(c3ccccc3n2Cc2ccc(C(=O)NO)cc2)C1 [Tubastatin A]
Method in brief: as §1

[3] = compound: CNC(=O)C1=CC=CC=C1NC2=NC(=NC=C2Cl)NC3=C(C=C(C=C3)N4CCOCC4)OC
Method in brief: as §1

[4] = compound: CNC(=O)c1ccc(Nc2ncc(C(F)(F)F)c(NCc3nccnc3N(C)S(C)(=O)=O)n2)cc1 [defactinib]
Method in brief: as §1

[5] = compound: CNc1nc(-c2ccc3c(N)n[nH]c3c2)cc(N2C[C@@H](C(=O)NC3CCCCC3)CC[C@H]2C)n1
Method in brief: as §1

[6] = compound: COC(=O)N[C@@H](C)CNc1nccc(-c2cn(C(C)C)nc2-c2cc(Cl)cc(NS(C)(=O)=O)c2F)n1 [encorafenib]
Method in brief: as §1

[7] = compound: COC(=O)[C@H](CCSC)NC(=O)C1=C(C=C(C=C1)NC[C@H](CS)N)C2=CC=CC=C2
Method in brief: as §1

[8] = compound: COc1cc(Nc2ncc3c(n2)-c2ccc(Cl)cc2C(c2c(F)cccc2OC)=NC3)ccc1C(=O)O [alisertib]
Method in brief: as §1

[9] = compound: COc1cc2nc(-c3cc(F)ccc3O)nc(N[C@@H]3CNC[C@H]3C(C)(C)O)c2cc1OC
Method in brief: as §1

[10] = compound: COc1cc2ncnc(Nc3ccc(F)c(Cl)c3)c2cc1OCCCN1CCOCC1 [gefitinib]
Method in brief: as §1

[11] = compound: CS(=O)(=O)CCNCc1ccc(-c2ccc3ncnc(Nc4ccc(OCc5cccc(F)c5)c(Cl)c4)c3c2)o1 [lapatinib]
Method in brief: as §1

[12] = compound: CS(=O)(=O)N1CCN(Cc2cc3nc(-c4cccc5[nH]ncc45)nc(N4CCOCC4)c3s2)CC1 [pictilisib]
Method in brief: as §1

[13] = compound: C[C@@H](Oc1cc(-c2cnn(C3CCNCC3)c2)cnc1N)c1c(Cl)ccc(F)c1Cl [crizotinib]
Method in brief: as §1

[14] = compound: C[C@H](C1=CC=C(C=C1)C(=O)NC2=C3C=CNC3=NC=C2)N
Method in brief: as §1

[15] = compound: C[C@H](Nc1ncnc2nc[nH]c12)c1cc2cccc(Cl)c2c(=O)n1-c1ccccc1 [duvelisib]
Method in brief: as §1

[16] = compound: Cc1cc(Nc2cc(CN3CCOCC3)c3nc(C)c(Cc4ccc(Cl)cc4F)n3n2)n[nH]1 [gandotinib]
Method in brief: as §1

[17] = compound: Cc1cc(Nc2cc(N3CCN(C)CC3)nc(Sc3ccc(NC(=O)C4CC4)cc3)n2)n[nH]1 [tozasertib]
Method in brief: as §1

[18] = compound: Cc1ccc(-n2nc(C(C)(C)C)cc2NC(=O)Nc2ccc(OCCN3CCOCC3)c3ccccc23)cc1 [doramapimod]
Method in brief: as §1

[19] = compound: Cc1ccc(NC(=O)c2ccc(CN3CC[C@H](N(C)C)C3)c(C(F)(F)F)c2)cc1Nc1nccc(-c2cncnc2)n1 [bafetinib]
Method in brief: as §1

[20] = compound: Cc1cccc(CC(=O)N2CCc3c2ccc(-c2cn(C)c4ncnc(N)c24)c3F)n1
Method in brief: as §1

Measured: log2 fold change

RPS2 (UniProt P15880)
inactive: [1] 0.01 | [2] 0.007 | [3] -0.006 | [4] 0.017 | [5] 0.058 | [6] -0.032 | [7] 0.019 | [8] 0.008 | [9] -0.005 | [10] -0.044 | [11] -0.012 | [12] 0.014 | [13] -0.001 | [14] 0.004 | [15] 0.006 | [16] 0.006 | [17] -0.046 | [18] 0.006 | [19] -0.003 | [20] -0.02

RPS27A (UniProt P62979)
inactive: [1] -0.018 | [2] -0.019 | [3] -0.031 | [4] -0.026 | [5] -0.09 | [6] -0.046 | [7] 0.052 | [8] 0.031 | [9] -0.021 | [10] -0.048 | [11] 0.008 | [12] 0.054 | [13] 0.013 | [14] -0.01 | [15] 0.066 | [16] 0.111 | [17] -0.02 | [18] -0.022 | [19] 0.177 | [20] -0.016

RPP25L (UniProt Q8N5L8)
inactive: [1] -0.006 | [2] 0.006 | [3] -0.052 | [4] 0.08 | [5] -0.015 | [6] 0.031 | [7] 0.031 | [8] 0.032 | [9] -0.005 | [10] -0.009 | [11] 0.056 | [12] -0.093 | [13] -0.044 | [14] 0.137 | [15] 0.022 | [16] 0.153 | [17] -0.068 | [18] 0.021 | [19] -0.016 | [20] 0.034

RPS5 (UniProt P46782)
inactive: [1] 0.057 | [2] -0.001 | [3] 0.009 | [4] 0.027 | [5] 0.04 | [6] -0.043 | [7] 0.035 | [8] 0.007 | [9] -0.006 | [10] -0.078 | [11] -0.009 | [12] -0.003 | [13] 0.005 | [14] 0.059 | [15] -0.02 | [16] -0.02 | [17] -0.064 | [18] -0.037 | [19] 0.022 | [20] -0.048

RPS19 (UniProt P39019)
inactive: [1] 0.025 | [2] 0.018 | [3] -0.011 | [4] -0.02 | [5] 0.014 | [6] -0.021 | [7] 0.059 | [8] 0.015 | [9] -0.008 | [10] -0.019 | [11] -0.011 | [12] -0.001 | [13] 0.033 | [14] 0.049 | [15] 0.006 | [16] -0.046 | [17] 0.002 | [18] -0.015 | [19] 0.001 | [20] -0.069

RPS20 isoform 2 (UniProt P60866)
inactive: [1] -0.021 | [2] 0.013 | [3] -0.013 | [4] -0.058 | [5] 0.017 | [6] -0.015 | [7] -0.04 | [8] 0.005 | [9] 0.004 | [10] -0.023 | [11] -0.034 | [12] -0.141 | [13] -0.027 | [14] -0.093 | [15] 0.024 | [16] 0.031 | [17] 0.012 | [18] 0 | [19] -0.081 | [20] 0.015

RPL36AL (UniProt Q969Q0)
active: [5] -0.243
inactive: [1] 0.055 | [2] -0.056 | [3] 0.023 | [4] 0.026 | [6] 0.03 | [7] -0.08 | [8] -0.057 | [9] -0.029 | [10] -0.07 | [11] 0.05 | [12] 0.031 | [13] 0.216 | [14] 0.01 | [15] -0.033 | [16] -0.038 | [17] 0.047 | [18] -0.131 | [19] 0.137 | [20] 0.003

RPLP1 (UniProt P05386)
inactive: [1] 0.033 | [2] 0.032 | [3] 0.013 | [4] 0.048 | [5] 0.024 | [6] 0.048 | [7] -0.002 | [8] 0.043 | [9] -0.072 | [10] -0.189 | [11] 0.034 | [12] -0.003 | [13] 0.015 | [14] 0.051 | [15] 0.056 | [16] 0.022 | [17] -0.095 | [18] 0.052 | [19] -0.027 | [20] -0.105

RPS3A (UniProt P61247)
inactive: [1] 0.013 | [2] 0.023 | [3] 0.008 | [4] -0.03 | [5] -0.048 | [6] -0.024 | [7] -0.007 | [8] 0.018 | [9] -0.007 | [10] -0.023 | [11] 0 | [12] 0.017 | [13] 0.047 | [14] 0.041 | [15] -0.005 | [16] -0.043 | [17] 0.018 | [18] 0.001 | [19] 0.016 | [20] -0.018

RPRD1B (UniProt Q9NQG5)
inactive: [1] -0.016 | [2] -0.026 | [3] -0.017 | [4] 0.01 | [5] 0.023 | [6] 0.023 | [7] -0.007 | [8] 0.037 | [9] -0.019 | [10] 0.019 | [11] 0.009 | [12] 0.037 | [13] 0.078 | [14] -0.037 | [15] -0.016 | [16] 0.002 | [17] -0.01 | [18] 0.012 | [19] -0.059 | [20] 0

RRAGA (UniProt Q7L523)
inactive: [1] -0.122 | [3] -0.053 | [4] -0.044 | [5] -0.045 | [6] -0.032 | [7] -0.022 | [8] -0.161 | [9] 0.017 | [10] 0.04 | [11] 0 | [12] -0.06 | [13] -0.084 | [14] 0.075 | [15] 0.063 | [16] -0.035 | [17] -0.033 | [18] -0.058 | [19] -0.018 | [20] -0.02
active: [2] -0.687

Two entries drawn at random from those above, as already listed:
RPL36AL (UniProt Q969Q0)
active: [5] -0.243
inactive: [1] 0.055 | [2] -0.056 | [3] 0.023 | [4] 0.026 | [6] 0.03 | [7] -0.08 | [8] -0.057 | [9] -0.029 | [10] -0.07 | [11] 0.05 | [12] 0.031 | [13] 0.216 | [14] 0.01 | [15] -0.033 | [16] -0.038 | [17] 0.047 | [18] -0.131 | [19] 0.137 | [20] 0.003

RPRD1B (UniProt Q9NQG5)
inactive: [1] -0.016 | [2] -0.026 | [3] -0.017 | [4] 0.01 | [5] 0.023 | [6] 0.023 | [7] -0.007 | [8] 0.037 | [9] -0.019 | [10] 0.019 | [11] 0.009 | [12] 0.037 | [13] 0.078 | [14] -0.037 | [15] -0.016 | [16] 0.002 | [17] -0.01 | [18] 0.012 | [19] -0.059 | [20] 0

Continuation:

RPRD1A (UniProt Q96P16)
inactive: [1] -0.013 | [2] -0.059 | [3] 0.008 | [4] 0.059 | [5] 0.124 | [6] 0.029 | [7] 0.078 | [8] 0.03 | [9] 0.04 | [10] -0.025 | [11] -0.041 | [12] -0.017 | [13] -0.009 | [14] 0.057 | [15] 0.029 | [16] -0.023 | [17] -0.01 | [18] 0.056 | [19] -0.02 | [20] 0.007

RPS26 (UniProt P62854)
inactive: [1] 0.037 | [2] 0.056 | [3] -0.046 | [4] -0.035 | [5] 0.04 | [6] 0.019 | [7] 0.032 | [8] 0.075 | [9] -0.039 | [10] -0.039 | [11] 0.027 | [12] 0.015 | [13] 0.04 | [14] -0.105 | [15] 0.025 | [16] 0.061 | [17] -0.043 | [18] -0.077 | [19] -0.114 | [20] 0

RSRC1 (UniProt Q96IZ7)
inactive: [1] -0.056 | [2] 0.056 | [3] 0.017 | [4] -0.006 | [5] 0.062 | [6] 0.058 | [7] -0.051 | [8] 0.005 | [9] 0 | [10] -0.073 | [11] -0.021 | [12] -0.006 | [13] 0.059 | [14] -0.038 | [15] 0.049 | [16] 0 | [17] 0.022 | [18] -0.006 | [19] -0.02 | [20] 0.006

RPS6KC1 (UniProt Q96S38)
inactive: [1] 0.016 | [2] -0.027 | [3] 0.001 | [4] 0 | [5] -0.026 | [6] 0.014 | [7] 0.09 | [8] 0.001 | [9] 0 | [10] -0.004 | [11] -0.05 | [12] -0.014 | [13] 0.019 | [14] -0.03 | [15] 0.01 | [16] -0.022 | [17] 0.002 | [18] 0.056 | [19] -0.065 | [20] 0.038

RPS12 (UniProt P25398)
inactive: [1] 0.008 | [2] -0.009 | [3] 0.009 | [4] -0.007 | [5] 0.044 | [6] -0.007 | [7] -0.041 | [8] -0.005 | [9] 0 | [10] -0.009 | [11] -0.005 | [12] 0.02 | [13] 0.02 | [14] 0.059 | [15] 0.003 | [16] -0.034 | [17] -0.005 | [18] -0.04 | [19] 0.065 | [20] -0.012
